The list shows a part of the results. Rule as the data show it: active = 2-fold of DMSO or more and inactive = the rest. Single values of this set are uncertain. Some low values are a fixed figure set by the source, not a measured ratio.
test system: CM7/1-hgem mouse ES cell-derived cardiomyocytes; test: maximal number of mAG-hGem(1/110)-positive cardiomyocytes over 96 h, fold-change vs DMSO; higher = more cardiomyocyte cell cycle activity; conditions: 1 µM; 96 (max over 12 h time points) h

SMILES	maximal number
NCCCS(=O)(=O)O	inactive: 1
CC12CC3CC(C)(C1)CC(N)(C3)C2	inactive: 0
CC(C)(C#N)c1cc(Cn2cncn2)cc(C(C)(C)C#N)c1	inactive: 1
COc1ccc2c(c1)OCC(Cc1ccc(OC)c(OC(C)=O)c1)C2=O (configuration not stated)	inactive: 1
COc1cccc(-c2cc(=O)c3cc(OC)ccc3o2)c1	inactive: 1
CC(C)=CCc1c2c(c3occ(-c4ccc(O)cc4)c(=O)c3c1O)C=CC(C)(C)O2	active: 4
O=C(O)c1cc(=O)[nH]c(=O)[nH]1	inactive: 1
COc1ccc2nc3cc(Cl)ccc3c(Nc3cc(CN4CCCC4)c(O)c(CN4CCCC4)c3)c2n1	inactive: 1
CCOc1nc2cccc(C(=O)O)c2n1Cc1ccc(-c2ccccc2-c2nnn[nH]2)cc1	inactive: 1
N[C@@H](Cc1ccc(O)c(O)c1)C(=O)O	inactive: 1
NC1(C(=O)O)CCCC1	inactive: 0
COc1cc([C@@H]2c3cc4c(cc3[C@@H](O[C@@H]3O[C@@H]5CO[C@@H](C)O[C@H]5[C@H](O)[C@H]3O)[C@H]3COC(=O)[C@H]23)OCO4)cc(OC)c1O	inactive: 0.5
CC(=O)NC[C@H]1CN(c2ccc(N3CCOCC3)c(F)c2)C(=O)O1	inactive: 1
NC(=O)NCCC[C@H](N)C(=O)O	inactive: 0
CN1CCN(c2c(F)cc3c(=O)c(C(=O)O)cn4c3c2SCC4)CC1	inactive: 0
COc1cc2c(cc1OC)C1C(=O)c3c(O)cc4c(c3OC1CO2)C=CC(C)(C)O4 (stereo not drawn) [alpha-TOXICAROL (dl)]	inactive: 1
Cc1cn([C@H]2C=C[C@@H](CO)O2)c(=O)[nH]c1=O	inactive: 1
COc1ccc(/C=C/C(=O)Nc2ccccc2C(=O)O)cc1OC	inactive: 1
COc1cc(OC)c2c(c1Cl)O[C@@]1(C(=O)CC(=O)C[C@H]1C)C2=O	inactive: 1

Shown with bars between the fields: entries from further up
SMILES | maximal number
N[C@@H](Cc1ccc(O)c(O)c1)C(=O)O | inactive: 1
NC1(C(=O)O)CCCC1 | inactive: 0

(further entries)

SMILES	maximal number
CN1[C@@H]2CC[C@H]1C[C@@H](OC(=O)c1c[nH]c3ccccc13)C2	inactive: 1
CCCCCCCCCCCCCCCC(=O)OC/C=C(C)/C=C/C=C(C)/C=C/C1=C(C)CCCC1(C)C	inactive: 1
NC1(C(=O)O)CC1	inactive: 1
COC(=O)C[C@H]1C(C)(C)C(=O)[C@@H]2CC3C4=CC(=O)O[C@@H](c5ccoc5)[C@]4(C)CC[C@@H]3[C@@]1(C)C2=O (some centres not stated)	inactive: 0
CC(=O)O[C@H]1CC[C@]2(C)C3=C(CC[C@H]2C1(C)C)[C@]1(C)CC[C@H]([C@H](C)CCC=C(C)C)[C@@]1(C)CC3	inactive: 0.5
Oc1cc(O)c2c(c1)O[C@H](c1cc(O)c(O)c(O)c1)[C@H](O)C2	inactive: 1
COC(=O)C[C@H]1C(C)(C)C(=O)[C@@H]2CC3=C4CC(=O)O[C@@H](c5ccoc5)[C@]4(C)CC[C@@H]3[C@@]1(C)C2=O	inactive: 1
C[C@@H]1CC[C@H]2[C@](C)(CO)[C@@H](O)CC[C@]2(C)[C@@]12CC[C@@](CO)(CCO)O2	inactive: 1
CN1CCC(=C2c3ccccc3Sc3ccccc32)CC1	inactive: 1
CC1=CC(=O)c2ccccc2C1=O	inactive: 1
C=C1CCC2C(CC2(C)C)C(=C)CC/C1=N/O (configuration not stated)	inactive: 1
O=S(=O)(c1cccc2cnccc12)N1CCCNCC1	inactive: 0
CC(=O)O[C@H]1C[C@@H](OC(C)=O)C(C)(C)[C@@H]2C[C@@H](OC(C)=O)[C@@]3(C)C4=CC(=O)O[C@@H](c5ccoc5)[C@]4(C)CC[C@@H]3[C@@]12C	inactive: 0.5
O=c1c(O)cc([C@H]2Oc3cc(O)cc(O)c3C[C@H]2O)cc2c([C@H]3Oc4cc(O)cc(O)c4C[C@H]3O)cc(O)c(O)c12	inactive: 1
CC1(C)C(=O)C=CC2(C)C1C=CC1(C)C2CCC2(C)C(c3ccoc3)OC(=O)C3OC312 (configuration not stated)	inactive: 1
CC=CC1=C(C(=O)O)N2C(=O)[C@@H](NC(=O)[C@H](N)c3ccc(O)cc3)[C@H]2SC1	inactive: 1
CC(C)Cn1cnc2c(N)nc3ccccc3c21	inactive: 1
O=C(O)Cc1cc(I)c(Oc2ccc(O)c(I)c2)c(I)c1	active: 2

From the supplement of paper PMC9549374
